{"source": "PubChem BioAssay AID1508588 (Peter MacCallum Cancer Centre, 2020)", "purpose": "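Genome-wide search for knock-downs that heighten vemurafenib action in melanoma cells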 (primary screen)", "system": "human WM266.4 melanoma cells (BRAF V600 mutant)", "knock-down reagent": "siRNA pool against human genes, 40 nM", "duration": "96 h from transfection to read-out", "treatment": "vemurafenib 300 nM (about IC25), added 48 h after transfection, for 48 h; comparison arm got DMSO vehicle only", "read-out": "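Ratios to non-targeting siRNA for cell gain, counted as DAPI nuclei after minus before drug and averaged over two replicates, and for absorbance-read medium lactate per cell; both binned into fold-change classes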", "direction": "cell gain with vemurafenib: higher = more cell gain than with non-targeting siRNA; lactate per cell with vemurafenib: higher = more lactate made per cell", "active means": "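Enhancement is called by pairing each knock-down's vehicle-arm and drug-arm fold-change classes for viability or glycolysis; which class combinations qualify is not given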", "meaning of the calls": "active = enhances vemurafenib effect; inactive = no enhancement seen", "note": "The deposit covers about 18,000 reagents; below is an unselected part. Over the whole deposit, 790 (4.4%) were called active. 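Calls rest on a combination of fold-change classes in drug and vehicle arms, not all shown here.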 Some reagents were tested in more than one well and are listed for each."}
{"gene knocked down": "MRPL51", "cell gain with vemurafenib": 0.74, "lactate per cell with vemurafenib": 0.32, "call": "inactive"}
{"gene knocked down": "RDH16", "cell gain with vemurafenib": 0.79, "lactate per cell with vemurafenib": 0.84, "call": "inactive"}
{"gene knocked down": "MAEL", "cell gain with vemurafenib": 1.04, "lactate per cell with vemurafenib": 0.4, "call": "inactive"}
{"gene knocked down": "TMEM214", "cell gain with vemurafenib": 0.84, "lactate per cell with vemurafenib": 0.86, "call": "inactive"}
{"gene knocked down": "TRAF1", "cell gain with vemurafenib": 0.49, "lactate per cell with vemurafenib": 0.42, "call": "inactive"}
{"gene knocked down": "CRIPAK (retired record)", "cell gain with vemurafenib": 0.76, "lactate per cell with vemurafenib": 0.96, "call": "inactive"}
{"gene knocked down": "PIK3IP1", "cell gain with vemurafenib": 0.22, "lactate per cell with vemurafenib": 1.23, "call": "inactive"}
{"gene knocked down": "EI24", "cell gain with vemurafenib": 0.7, "lactate per cell with vemurafenib": 1.27, "call": "inactive"}
{"gene knocked down": "INSIG1", "cell gain with vemurafenib": 0.53, "lactate per cell with vemurafenib": 1.15, "call": "inactive"}
{"gene knocked down": "FAAP100", "cell gain with vemurafenib": 0.96, "lactate per cell with vemurafenib": 0.69, "call": "inactive"}
{"gene knocked down": "NPAS4", "cell gain with vemurafenib": 0.72, "lactate per cell with vemurafenib": 0.75, "call": "inactive"}
{"gene knocked down": "ZNF419", "cell gain with vemurafenib": 0.87, "lactate per cell with vemurafenib": 0.65, "call": "inactive"}
{"gene knocked down": "FOXG1", "cell gain with vemurafenib": 0.76, "lactate per cell with vemurafenib": 0.76, "call": "inactive"}
{"gene knocked down": "PDE4D", "cell gain with vemurafenib": 0.46, "lactate per cell with vemurafenib": 2.15, "call": "inactive"}
{"gene knocked down": "LY6E", "cell gain with vemurafenib": 0.63, "lactate per cell with vemurafenib": 0.98, "call": "inactive"}
{"gene knocked down": "SPG21", "cell gain with vemurafenib": 0.43, "lactate per cell with vemurafenib": 1.56, "call": "inactive"}
{"gene knocked down": "HDHD5", "cell gain with vemurafenib": 0.56, "lactate per cell with vemurafenib": 0.52, "call": "inactive"}
{"gene knocked down": "RIBC2", "cell gain with vemurafenib": 0.15, "lactate per cell with vemurafenib": 1.08, "call": "inactive"}
{"gene knocked down": "PFKFB3", "cell gain with vemurafenib": 0.82, "lactate per cell with vemurafenib": 0.09, "call": "inactive"}
{"gene knocked down": "PFKFB3", "cell gain with vemurafenib": 0.62, "lactate per cell with vemurafenib": 0.16, "call": "inactive"}
{"gene knocked down": "CENPBD1P", "cell gain with vemurafenib": 0.85, "lactate per cell with vemurafenib": 1.75, "call": "inactive"}
{"gene knocked down": "POLR1F", "cell gain with vemurafenib": 0.63, "lactate per cell with vemurafenib": 1.47, "call": "inactive"}
{"gene knocked down": "VEGFC", "cell gain with vemurafenib": -0.05, "lactate per cell with vemurafenib": 3.04, "call": "inactive"}
{"gene knocked down": "P2RX3", "cell gain with vemurafenib": 0.74, "lactate per cell with vemurafenib": 0.82, "call": "inactive"}
{"gene knocked down": "LIFR", "cell gain with vemurafenib": 0.52, "lactate per cell with vemurafenib": 0.64, "call": "inactive"}
{"gene knocked down": "ELP6", "cell gain with vemurafenib": 0.19, "lactate per cell with vemurafenib": 0.42, "call": "inactive"}
{"gene knocked down": "EPB41L2", "cell gain with vemurafenib": 0.62, "lactate per cell with vemurafenib": 1.54, "call": "inactive"}
{"gene knocked down": "SLC7A6", "cell gain with vemurafenib": 1.13, "lactate per cell with vemurafenib": 0.55, "call": "inactive"}
{"gene knocked down": "MFGE8", "cell gain with vemurafenib": 0.25, "lactate per cell with vemurafenib": 1.77, "call": "inactive"}
{"gene knocked down": "NLRP4", "cell gain with vemurafenib": 0.71, "lactate per cell with vemurafenib": 1.4, "call": "inactive"}
{"gene knocked down": "LRRC74A", "cell gain with vemurafenib": 0.67, "lactate per cell with vemurafenib": 1.18, "call": "inactive"}
{"gene knocked down": "DIP2B", "cell gain with vemurafenib": 0.16, "lactate per cell with vemurafenib": 1.86, "call": "inactive"}
{"gene knocked down": "C4BPA", "cell gain with vemurafenib": 0.52, "lactate per cell with vemurafenib": 1.69, "call": "inactive"}
{"gene knocked down": "UNC5B", "cell gain with vemurafenib": 0.87, "lactate per cell with vemurafenib": 0.64, "call": "inactive"}
{"gene knocked down": "CTHRC1", "cell gain with vemurafenib": 0.55, "lactate per cell with vemurafenib": 0.18, "call": "active"}
{"gene knocked down": "ACTR5", "cell gain with vemurafenib": 0.74, "lactate per cell with vemurafenib": 0.58, "call": "inactive"}
{"gene knocked down": "ZNF524", "cell gain with vemurafenib": 0.65, "lactate per cell with vemurafenib": 1.11, "call": "inactive"}
{"gene knocked down": "GNGT1", "cell gain with vemurafenib": -0.07, "lactate per cell with vemurafenib": 0.98, "call": "inactive"}
{"gene knocked down": "GNG12", "cell gain with vemurafenib": 0.29, "lactate per cell with vemurafenib": 1.87, "call": "inactive"}
{"gene knocked down": "OLFML3", "cell gain with vemurafenib": 0.46, "lactate per cell with vemurafenib": 1.48, "call": "inactive"}
{"gene knocked down": "UGT1A4", "cell gain with vemurafenib": 0.55, "lactate per cell with vemurafenib": 1.5, "call": "inactive"}
{"gene knocked down": "SAP130", "cell gain with vemurafenib": -0.1, "lactate per cell with vemurafenib": 1.25, "call": "inactive"}
{"gene knocked down": "NOBOX", "cell gain with vemurafenib": 0.44, "lactate per cell with vemurafenib": 1.92, "call": "inactive"}
{"gene knocked down": "TNFSF11", "cell gain with vemurafenib": 0.22, "lactate per cell with vemurafenib": 0.6, "call": "inactive"}
{"gene knocked down": "SACK1C", "cell gain with vemurafenib": 0.22, "lactate per cell with vemurafenib": 1.52, "call": "inactive"}
{"gene knocked down": "GDPD4", "cell gain with vemurafenib": 0.34, "lactate per cell with vemurafenib": 0.36, "call": "active"}
{"gene knocked down": "PTP4A1", "cell gain with vemurafenib": 0.99, "lactate per cell with vemurafenib": 0.21, "call": "inactive"}
{"gene knocked down": "CCNY", "cell gain with vemurafenib": 0.63, "lactate per cell with vemurafenib": 1, "call": "inactive"}
{"gene knocked down": "AQP11", "cell gain with vemurafenib": 0.78, "lactate per cell with vemurafenib": 0.74, "call": "inactive"}
{"gene knocked down": "SIGLEC9", "cell gain with vemurafenib": 1.07, "lactate per cell with vemurafenib": 0.7, "call": "inactive"}
{"gene knocked down": "B3GAT2", "cell gain with vemurafenib": 0.86, "lactate per cell with vemurafenib": 1.12, "call": "inactive"}
{"gene knocked down": "SUMO4", "cell gain with vemurafenib": 0.81, "lactate per cell with vemurafenib": 0.28, "call": "inactive"}

Entries listed so far marked active (2):
{"gene knocked down": "CTHRC1", "cell gain with vemurafenib": 0.55, "lactate per cell with vemurafenib": 0.18, "call": "active"}
{"gene knocked down": "GDPD4", "cell gain with vemurafenib": 0.34, "lactate per cell with vemurafenib": 0.36, "call": "active"}
